Measured values taken from paper PMC11298252.
Results are given in words; binding and its absence hold for the method and conditions named. Binding seen in cells or lysates may run through a third protein. Some entries that bind do so weakly or less than the wild type. Sequences can lack the tags named with a protein.

Sequences of proteins named here, by UniProt entry; tags and fusion partners are left off.
UniProt O15260: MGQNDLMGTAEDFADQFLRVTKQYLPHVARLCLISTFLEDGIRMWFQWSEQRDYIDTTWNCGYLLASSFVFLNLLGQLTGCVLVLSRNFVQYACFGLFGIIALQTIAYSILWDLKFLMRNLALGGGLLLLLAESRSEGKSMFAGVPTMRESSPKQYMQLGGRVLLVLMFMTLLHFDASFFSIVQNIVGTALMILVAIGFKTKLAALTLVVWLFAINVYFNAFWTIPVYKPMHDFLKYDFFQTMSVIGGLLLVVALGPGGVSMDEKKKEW

Target: Myc-DDK-tagged Surf4 (UniProt O15260)
Test: co-IP; HepG2 cells co-transfected with HA-SAA1 and Myc-DDK-Surf4, treated with sodium azide and D-glucose, cross-linked with a membrane-permeable reversible crosslinker; RIPA lysate applied to anti-Myc antibody-conjugated beads; immunoblotting

binding: binds
B1: HA-tagged serum amyloid A1 (SAA1) (protein, UniProt P0DJI8 19-122)
chain: RSFFSFLGEAFDGARDMWRAYSDMREANYIGSDKYFHARGNYDAAKRGPGGAWAAEVITDARENIQRFFGHGAEDSLADQAANEWGRSGKDPNHFRPAGLPEKY
